Measured values from US20230241073A1, “PHARMACEUTICAL COMPOSITION FOR PREVENTING OR TREATING NON-SMALL CELL LUNG CANCER ASSOCIATED WITH RON MUTANTATION, AND METHOD USING SAME” (WELLMARKER BIO CO., LTD., priority 2020, published 2023).
Some entries share one result that the patent states for a list of compounds. For at least one compound, name, drawing or mass did not settle the structure.

Key:
[1] = system: A549 non-small cell lung cancer cell line of a mutation RONΔ155 type; assay: Cell killing efficacy, trypan blue exclusion assay, A549; format: cell-based; conditions: A549, 1 μM, 48 hours, FIG. 1
Experimental: (§1) A549 and NCI-H358, which are non-small cell lung cancer cell lines of a mutation RONΔ155 type, were dispensed, and 24 hours later, treated with 1 μM of the compounds of Examples 1 (WM-S1-030) to 5, positive control 1 (BMS-777607) and positive control 2 (AMG-510), respectively, while replacing the medium. After 48 hours, the cells and the cell fluid were harvested (1500 rpm, 4 min), and live cells and dead cells were quantified through trypan blue (15250-061, Gibco) exclusion assay. Statistical analysis was performed using T-test in Excel.

[2] = system: NCI-H358 non-small cell lung cancer cell line of a mutation RONΔ155 type; assay: Cell killing efficacy, trypan blue exclusion assay, NCI-H358; format: cell-based; conditions: NCI-H358, 1 μM, 48 hours, FIG. 1
Experimental: as §1

SMILES	Cell killing efficacy (cell death) [1]	Cell killing efficacy (cell death) [2]
CCOc1ccn(-c2ccccc2)c(=O)c1C(=O)Nc1ccc(Oc2ccnc3cc(-c4ccc(CNCCOC)cn4)sc23)c(F)c1.Cl [Example 2, 4-ethoxy-N-(3-fluoro-4-{[2-(5-{[(2-methoxyethyl)amino]methyl}pyridin-2-yl)thieno[3,2-b]pyridin-7-yl]oxy}phenyl)-2-oxo-1-phenyl-1,2-dihydropyridine-3-carboxamide hydrochloride]	cell death was induced	cell death was induced
CCOc1ccn(-c2ccccc2)c(=O)c1C(=O)Nc1ccc(Oc2ccnc3cc(-c4ccc(CN5CCN(C)CC5)cn4)sc23)c(F)c1.Cl [Example 3]	cell death was induced	cell death was induced
CCOc1ccn(-c2ccc(F)cc2)c(=O)c1C(=O)Nc1ccc(Oc2ccnc3cc(-c4ccc(CN5CCOCC5)cn4)sc23)c(F)c1.Cl [Example 1, 4-ethoxy-N-[3-fluoro-4-({2-[5-(morpholinomethyl)pyridin-2-yl]thieno[3,2-b]pyridin-7-yl}oxy)phenyl]-1-(4-fluorophenyl)-2-oxo-1,2-dihydropyridine-3-carboxamide hydrochloride]	cell death was induced	cell death was induced
COc1cc2c(Oc3ccc(NC(=O)c4c5c(cn(-c6ccc(F)cc6)c4=O)CCO5)cc3F)ccnc2cc1OCCN1CCOCC1 [Example 4, N-(3-fluoro-4-{[6-methoxy-7-(2-morpholinoethoxy)quinolin-4-yl]oxy}phenyl)-5-(4-fluorophenyl)-6-oxo-2,3,5,6-tetrahydrofuro[3,2-c]pyridine-7-carboxamide]	cell death was induced	cell death was induced
COc1cc2c(Oc3ccc(NC(=O)c4c5c(cn(-c6ccc(F)cc6)c4=O)CCO5)cc3F)ccnc2cc1OCCCN1CC(C#N)C1 [Example 5, N-[4-({7-[3-(3-cyanoazetidin-1-yl)propoxy]-6-methoxyquinolin-4-yl}oxy)-3-fluorophenyl]-5-(4-fluorophenyl)-6-oxo-2,3,5,6-tetrahydrofuro[3,2-c]pyridine-7-carboxamide]	cell death was induced	cell death was induced
